We go through 21 molecules from the supplement of paper PMC12889115.

The structures appear in SMILES notation. The list shows a part of the results. Values are raw readings; no control value is given beside them.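 Primary screen: polymyxin B was added at a level permeabilizing Salmonella outer membranes while sparing inner membranes. DMSO wells, both with and without polymyxin B, established maximum growth. Plate-to-plate variation meant each plate was ranked on its own, and the lowest-OD600 compounds were selected as hits.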

This experiment deals with Salmonella enterica serovar Typhimurium SL1344. In words: bacterial growth OD600 after 18 h with compound and polymyxin B; higher = more bacterial growth (less inhibition). Conditions: 50 µM, Mueller-Hinton broth.

Take `CCn1cc(CNC(=O)CCC2(Cc3ccc(OC)c4ccccc34)CCC(=O)N2)cn1` (stereo unspecified): the “bacterial growth OD600” value (polymyxin B 0.75 µg/mL) was 0.903.

`O=C(NC1CCC1)c1cc(COc2ccc(F)cc2F)[nH]n1`: the “bacterial growth OD600” value (polymyxin B 0.75 µg/mL) was found to be 0.717.

Turning to `CCOc1ccc2nc(N3CCCN(Cc4ccccc4O)CC3)nc(C)c2c1`, the “bacterial growth OD600” value (polymyxin B 0.75 µg/mL) was 0.766.

Regarding `CC(C)(C)CNc1ccc(C(=O)N2CCCN(c3ncccn3)CC2)cn1`, the “bacterial growth OD600” value (polymyxin B 1 µg/mL) came to 0.903.

For the molecule `COC(=O)CCC(=O)N(C)CC1CCCN(CCc2cccc(C(F)(F)F)c2)C1` (stereo unspecified), the “bacterial growth OD600” value (polymyxin B 1 µg/mL) is 0.908.

Turning to `O=C(c1ccc(C(F)(F)F)cc1)C1CCCN(C(=O)C2=CCCC2)C1` (stereo unspecified), the “bacterial growth OD600” value (polymyxin B 1 µg/mL) was 0.701.

For the molecule `O=C(CCCn1cncn1)N1CCCC(CCc2ccccc2F)C1` (stereo unspecified), the “bacterial growth OD600” value (polymyxin B 0.75 µg/mL) was determined as 0.901.

On to `COc1ccc(C(=O)N2CCCC(N3CCN(c4ccccc4OC)CC3)C2)o1` (stereo unspecified), for which the “bacterial growth OD600” value (polymyxin B 1 µg/mL) is 0.064.

For the molecule `COC(=O)c1c(S(=O)(=O)NCc2ccccc2Cl)sc2c1CCN(C(=O)/C=C/C(C)C)C2`, for the setting “polymyxin B 0.75 µg/mL”, the “bacterial growth OD600” value turned out to be 0.009.

For the molecule `CC(C)(C)NC(=O)c1coc(COc2cccc(F)c2F)n1`, the “bacterial growth OD600” value (polymyxin B 0.75 µg/mL) was found to be 0.812.

For `COCCC(=O)Nc1ccc2c(c1)CN(CC1=CC[C@H]3C[C@@H]1C3(C)C)CC2`, where the note is “polymyxin B 0.75 µg/mL”, the “bacterial growth OD600” value was determined as 0.748.

For `CCc1ccc(CN2CCCC(C(=O)Nc3ccccc3Oc3cccnc3)C2)o1` (stereo unspecified), the “bacterial growth OD600” value (polymyxin B 1 µg/mL) came to 0.686.

Regarding `CCOC(=O)C1(CCOC)CCN(Cc2cccc3c2oc2ccccc23)CC1`, where the note is “polymyxin B 1 µg/mL”, the “bacterial growth OD600” value turned out to be 0.824.

For the molecule `COc1ccc(CNC(=O)CCC2(Cc3cccc(OC)c3)CCC(=O)N2)cc1` (stereo unspecified), the “bacterial growth OD600” value (polymyxin B 0.75 µg/mL) stood at 0.874.

For `O=C(c1cc(COc2ccc(F)cc2Cl)on1)N1CCCC1`, the “bacterial growth OD600” value (polymyxin B 0.75 µg/mL) came to 0.586.

`CCOC(=O)N1CCC(NC(=O)C2CC23CCN(C(=O)c2cc4cc(C)ccc4[nH]2)CC3)CC1` (stereo unspecified): the “bacterial growth OD600” value (polymyxin B 0.75 µg/mL) turned out to be 0.721.

Turning to `COc1ccccc1Oc1ncccc1CNC(=O)c1cccnc1C`, the “bacterial growth OD600” value (polymyxin B 1 µg/mL) was 0.873.

For the molecule `COCCO[C@H]1[C@H](NC(=O)C(C)C)c2ccccc2C12CCN(C(=O)c1cc(F)cc(F)c1)CC2`, the “bacterial growth OD600” value (polymyxin B 0.75 µg/mL) was determined as 0.772.

On to `CCOC(=O)C1(Cc2cccc(F)c2)CCN(Cc2cccc(C)n2)CC1`, for which, where the note is “polymyxin B 1 µg/mL”, the “bacterial growth OD600” value stood at 0.797.

As to `Cc1noc(C)c1CCCNC(=O)c1ccc(NC(C)C)nc1`, the “bacterial growth OD600” value (polymyxin B 0.75 µg/mL) turned out to be 0.775.

Consider `COc1ccccc1CN(C)C(=O)c1coc(COc2cccc(F)c2F)n1`, for which, under “polymyxin B 1 µg/mL”, the “bacterial growth OD600” value came out at 0.844.
